Values from PubChem BioAssay AID1224830 (NIAID, 2016).

Screen: 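Genes whose knock-down alters the TNF-alpha reporter response to LPS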 (primary screen)
Cells: human THP-1 monocytic leukaemia cells, TNF dual-luciferase reporter clone, PMA-differentiated to macrophage-like cells
Reagents: siRNA pool against human genes, 50 nM
Timing: LPS for 4 h, given about 3 days after siRNA transfection
Challenge: bacterial LPS (TLR4 ligand), 10 ng/ml
Detection: 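Ratio of firefly to renilla light, scaled to the plate median and expressed as a robust z-score per replicate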
Direction: TNF reporter robust z-score: higher = stronger TNF reporter response to LPS
Rule for the call: 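Each well counts as active if its z-score is over 2.8 or under -1.5; controls are left without a call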
This is one part, drawn at random, of about 18,000 reagents. Of all reagents, about 2,900 (16%) were called active. 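Calls are made per well; low scores hint the gene aids the LPS response, high scores that it dampens it.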 Repeated entries: four replicate wells of each siRNA pool.

| target | TNF reporter robust z-score | call |
| --- | --- | --- |
| XPC (GeneID 7508) | 1.47 | inactive |
| XPC (GeneID 7508) | 1.34 | inactive |
| XPC (GeneID 7508) | 0.08 | inactive |
| XPC (GeneID 7508) | 1.4 | inactive |
| ERAP2 (GeneID 64167) | -0.32 | inactive |
| ERAP2 (GeneID 64167) | 0.24 | inactive |
| ERAP2 (GeneID 64167) | 0 | inactive |
| ERAP2 (GeneID 64167) | 0.54 | inactive |
| CD164 (GeneID 8763) | -1.51 | active |
| CD164 (GeneID 8763) | -1.16 | inactive |
| CD164 (GeneID 8763) | -1.11 | inactive |
| CD164 (GeneID 8763) | -0.94 | inactive |
| ODAPH (GeneID 152816) | -1.72 | active |
| ODAPH (GeneID 152816) | -1.43 | inactive |
| ODAPH (GeneID 152816) | -1.09 | inactive |
| ODAPH (GeneID 152816) | -1.54 | active |
| ACR (GeneID 49) | 0.03 | inactive |
| ACR (GeneID 49) | 1.02 | inactive |
| ACR (GeneID 49) | 0.26 | inactive |
| ACR (GeneID 49) | 0.1 | inactive |
| GMFB (GeneID 2764) | -0.76 | inactive |
| GMFB (GeneID 2764) | -0.79 | inactive |
| GMFB (GeneID 2764) | 1.53 | inactive |
| GMFB (GeneID 2764) | 3.36 | active |
| VPS37C (GeneID 55048) | -1 | inactive |
| VPS37C (GeneID 55048) | -0.64 | inactive |
| VPS37C (GeneID 55048) | -0.3 | inactive |
| VPS37C (GeneID 55048) | -1.08 | inactive |
| CCBE1 (GeneID 147372) | -0.42 | inactive |
| CCBE1 (GeneID 147372) | 1.73 | inactive |
| CCBE1 (GeneID 147372) | -0.32 | inactive |
| CCBE1 (GeneID 147372) | -0.17 | inactive |
| HAMP (GeneID 57817) | -0.29 | inactive |
| HAMP (GeneID 57817) | 2.47 | inactive |
| HAMP (GeneID 57817) | 3.96 | active |
| HAMP (GeneID 57817) | 1.01 | inactive |
| ZFHX2 (GeneID 85446) | -0.48 | inactive |
| ZFHX2 (GeneID 85446) | -0.32 | inactive |
| ZFHX2 (GeneID 85446) | -0.86 | inactive |
| ZFHX2 (GeneID 85446) | -0.06 | inactive |
| ARPC3 (GeneID 10094) | 0.07 | inactive |
| ARPC3 (GeneID 10094) | 0.67 | inactive |
| ARPC3 (GeneID 10094) | -0.45 | inactive |
| ARPC3 (GeneID 10094) | -0.39 | inactive |
| SLC35B3 (GeneID 51000) | -0.93 | inactive |
| SLC35B3 (GeneID 51000) | 1.44 | inactive |
| SLC35B3 (GeneID 51000) | -0.18 | inactive |
| SLC35B3 (GeneID 51000) | 1.38 | inactive |
| IL17RB (GeneID 55540) | 0.9 | inactive |
| IL17RB (GeneID 55540) | 0.39 | inactive |
| IL17RB (GeneID 55540) | 0.33 | inactive |
| IL17RB (GeneID 55540) | -0.04 | inactive |
| RAB39B (GeneID 116442) | 0.82 | inactive |
| RAB39B (GeneID 116442) | 0.91 | inactive |
| RAB39B (GeneID 116442) | 2.27 | inactive |
| RAB39B (GeneID 116442) | 1.19 | inactive |
| HAGHL (GeneID 84264) | 0.92 | inactive |
| HAGHL (GeneID 84264) | 0.55 | inactive |
| HAGHL (GeneID 84264) | -0.21 | inactive |
| HAGHL (GeneID 84264) | -0.13 | inactive |
| SYCP3 (GeneID 50511) | -1.16 | inactive |
| SYCP3 (GeneID 50511) | -0.98 | inactive |
| SYCP3 (GeneID 50511) | -0.71 | inactive |
| SYCP3 (GeneID 50511) | -0.68 | inactive |
| MAN1B1 (GeneID 11253) | 7.07 | active |
| MAN1B1 (GeneID 11253) | 8.94 | active |
| MAN1B1 (GeneID 11253) | 10 | active |
| MAN1B1 (GeneID 11253) | 18 | active |
| SCMH1 (GeneID 22955) | -0.29 | inactive |
| SCMH1 (GeneID 22955) | 0.02 | inactive |
| SCMH1 (GeneID 22955) | -0.23 | inactive |
| SCMH1 (GeneID 22955) | -0.01 | inactive |
| RCAN2 (GeneID 10231) | -1.81 | active |
| RCAN2 (GeneID 10231) | -1.23 | inactive |
| RCAN2 (GeneID 10231) | -1.93 | active |
| RCAN2 (GeneID 10231) | -1.48 | inactive |
| ATP1A4 (GeneID 480) | 1.41 | inactive |
| ATP1A4 (GeneID 480) | 0.19 | inactive |
| ATP1A4 (GeneID 480) | 1.33 | inactive |
| ATP1A4 (GeneID 480) | 2.15 | inactive |
| ZC3H7A (GeneID 29066) | -0.65 | inactive |
| ZC3H7A (GeneID 29066) | 0.46 | inactive |
| ZC3H7A (GeneID 29066) | -0.17 | inactive |
| ZC3H7A (GeneID 29066) | -0.81 | inactive |
| PLLP (GeneID 51090) | 2.83 | active |
| PLLP (GeneID 51090) | 4.05 | active |
| PLLP (GeneID 51090) | 0.92 | inactive |
| PLLP (GeneID 51090) | 2.23 | inactive |
| ELOA2 (GeneID 51224) | -1.3 | inactive |
| ELOA2 (GeneID 51224) | -1.06 | inactive |
| ELOA2 (GeneID 51224) | -0.63 | inactive |
| ELOA2 (GeneID 51224) | -0.67 | inactive |
| METTL21C (GeneID 196541) | -0.16 | inactive |
| METTL21C (GeneID 196541) | 0.13 | inactive |
| METTL21C (GeneID 196541) | -0.79 | inactive |
| METTL21C (GeneID 196541) | 0.49 | inactive |
| GLTP (GeneID 51228) | 0.61 | inactive |
| GLTP (GeneID 51228) | 1.64 | inactive |
| GLTP (GeneID 51228) | 2.64 | inactive |
| GLTP (GeneID 51228) | 2.06 | inactive |
| MRPS11 (GeneID 64963) | 0.06 | inactive |
| MRPS11 (GeneID 64963) | 0.27 | inactive |
| MRPS11 (GeneID 64963) | 1.24 | inactive |
| MRPS11 (GeneID 64963) | 0.77 | inactive |
| RNPC3 (GeneID 55599) | -1.42 | inactive |
| RNPC3 (GeneID 55599) | -0.23 | inactive |
| RNPC3 (GeneID 55599) | 0.11 | inactive |
| RNPC3 (GeneID 55599) | 0.63 | inactive |
| NEUROD2 (GeneID 4761) | -0.8 | inactive |
| NEUROD2 (GeneID 4761) | -1.01 | inactive |
| NEUROD2 (GeneID 4761) | -1.34 | inactive |
| NEUROD2 (GeneID 4761) | -1.15 | inactive |

An excerpt from the list above, as a working copy:
| target | TNF reporter robust z-score | call |
| --- | --- | --- |
| SLC35B3 (GeneID 51000) | 1.44 | inactive |
| SLC35B3 (GeneID 51000) | -0.18 | inactive |
| SLC35B3 (GeneID 51000) | 1.38 | inactive |
| IL17RB (GeneID 55540) | 0.9 | inactive |
| IL17RB (GeneID 55540) | 0.39 | inactive |
| IL17RB (GeneID 55540) | 0.33 | inactive |
| IL17RB (GeneID 55540) | -0.04 | inactive |
| RAB39B (GeneID 116442) | 0.82 | inactive |
| RAB39B (GeneID 116442) | 0.91 | inactive |
| RAB39B (GeneID 116442) | 2.27 | inactive |
| RAB39B (GeneID 116442) | 1.19 | inactive |
| HAGHL (GeneID 84264) | 0.92 | inactive |
| HAGHL (GeneID 84264) | 0.55 | inactive |
| HAGHL (GeneID 84264) | -0.21 | inactive |
| HAGHL (GeneID 84264) | -0.13 | inactive |
| SYCP3 (GeneID 50511) | -1.16 | inactive |
| SYCP3 (GeneID 50511) | -0.98 | inactive |
| SYCP3 (GeneID 50511) | -0.71 | inactive |
